The values below come from US10653680B2, “Treatment of impulsivity-related disorders” (OXFORD UNIVERSITY INNOVATION LIMITED, priority 2016, dated 2020).

The test system of this data set is healthy participants. The experiment in a line: Human study: subjective ratings (PANAS mood, side effect profile, LSEQ sleep, guess of treatment arm). Type of data set: in vivo. The source says: Twenty healthy participants (7 females, 13 males; mean age 25.1 years, range 20-38 years; mean BMI 22.7 kg/m^2, range 18.7-30.0 kg/m^2) were included in the study after giving full informed written consent.
Exclusion criteria included a history of any DSM-5 Axis I psychiatric disorder (determined using the […] for Diagnostic and Statistical Manual for Mental Health Disorders), significant current medical condition, current regular medication (apart from the contraceptive pill), pregnancy or lactation, heavy smoking (defined as more than 5 cigarettes per day) and having taken part in another study involving an investigational drug within the previous 3 months. Participants were asked to maintain stable exercise and diet as well as refrain from alcohol during study participation.
Ebselen capsules and identical matching placebo (containing microcrystalline cellulose) were purchased from Shasun Pharmaceuticals Ltd. Participants were tested twice (seven days apart) receiving on one occasion ebselen and, on the other, placebo in a randomised, double-blind, cross-over design. Ebselen was administered in 6×200 mg capsules in three doses given over two days. The order of receiving either the ebselen or the placebo was randomised.
On the day before cognitive testing, participants took the first dose at 1 pm and the second dose at 10 pm. The final dose was taken around 3 hrs prior to cognitive testing. […]
On the screening visit, participants were assessed for baseline depression and anxiety symptoms with the Beck Depression Inventory (Beck et al.; Arch. Gen. Psychiatry; 1961, 4: 561-571) and the state measure of the State-Trait Anxiety Inventory (STAI) (Spielberger et al.; Manual for the State-Trait Anxiety Inventory, Consulting Psychologists Press, Palo Alto Calif., 1983), and for personality with the Eysenck Personality Questionnaire (Eysenck and Eysenck, Manual of the Eysenck Personality Questionnaire, London: Hodder & Stoughton, 1975). […]

On to `O=c1c2ccccc2[se]n1-c1ccccc1` [Ebselen, 2-phenyl-1,2-benzisoselenazol-3(2H)-one], for which the “PANAS - Positive, Mean ± SEM” value (20 healthy participants, ebselen 6x200 mg capsules in three doses over two days, vs placebo p = 0.204) came out at 29.8 ± 1.2. For the same compound, the “PANAS - Negative, Mean ± SEM” value (20 healthy participants, ebselen 6x200 mg capsules in three doses over two days, vs placebo p = 0.818) was 11.9 ± 0.7. Further, under “ebselen vs placebo, repeated measures ANOVA”, the “effects of treatment on mood (PANAS)” value is “no main or interactive effects”.
